Values quoted from earlier work, collected in patent publication US5217990A, “Use of macrolactones as anti-allergics” (Boehringer Mannheim GmbH, priority 1989, dated 1993).
At least one compound was matched to its structure with a doubt left.

Tests used:
[1] = cited from earlier work
[2] = cited from earlier work; remark: listed apart in the source

C[C@@H]1CCCCCC[C@H](O)/C=C\C(=O)O1 [patulolide C]
fungistatic activity [1]: weakly fungistatic
anti-bacterial activity [2]: anti-bacterial active
